Four molecules from PMC10184829 can be followed below.

No constants are given. Whether binding was seen depends on the method and setting. Binding seen in cells or lysates may run through a third protein. Some binding calls cover weakened binding; strength is not graded here. For some assays here: Tags and fused reporters may be left off the sequences shown.

Test [1] has as its target T1, Paracingulin (CGNL1), endogenous in mCCD cells (mouse (endogenous in mCCD)) (UniProt Q6AW69).
T1 sequence: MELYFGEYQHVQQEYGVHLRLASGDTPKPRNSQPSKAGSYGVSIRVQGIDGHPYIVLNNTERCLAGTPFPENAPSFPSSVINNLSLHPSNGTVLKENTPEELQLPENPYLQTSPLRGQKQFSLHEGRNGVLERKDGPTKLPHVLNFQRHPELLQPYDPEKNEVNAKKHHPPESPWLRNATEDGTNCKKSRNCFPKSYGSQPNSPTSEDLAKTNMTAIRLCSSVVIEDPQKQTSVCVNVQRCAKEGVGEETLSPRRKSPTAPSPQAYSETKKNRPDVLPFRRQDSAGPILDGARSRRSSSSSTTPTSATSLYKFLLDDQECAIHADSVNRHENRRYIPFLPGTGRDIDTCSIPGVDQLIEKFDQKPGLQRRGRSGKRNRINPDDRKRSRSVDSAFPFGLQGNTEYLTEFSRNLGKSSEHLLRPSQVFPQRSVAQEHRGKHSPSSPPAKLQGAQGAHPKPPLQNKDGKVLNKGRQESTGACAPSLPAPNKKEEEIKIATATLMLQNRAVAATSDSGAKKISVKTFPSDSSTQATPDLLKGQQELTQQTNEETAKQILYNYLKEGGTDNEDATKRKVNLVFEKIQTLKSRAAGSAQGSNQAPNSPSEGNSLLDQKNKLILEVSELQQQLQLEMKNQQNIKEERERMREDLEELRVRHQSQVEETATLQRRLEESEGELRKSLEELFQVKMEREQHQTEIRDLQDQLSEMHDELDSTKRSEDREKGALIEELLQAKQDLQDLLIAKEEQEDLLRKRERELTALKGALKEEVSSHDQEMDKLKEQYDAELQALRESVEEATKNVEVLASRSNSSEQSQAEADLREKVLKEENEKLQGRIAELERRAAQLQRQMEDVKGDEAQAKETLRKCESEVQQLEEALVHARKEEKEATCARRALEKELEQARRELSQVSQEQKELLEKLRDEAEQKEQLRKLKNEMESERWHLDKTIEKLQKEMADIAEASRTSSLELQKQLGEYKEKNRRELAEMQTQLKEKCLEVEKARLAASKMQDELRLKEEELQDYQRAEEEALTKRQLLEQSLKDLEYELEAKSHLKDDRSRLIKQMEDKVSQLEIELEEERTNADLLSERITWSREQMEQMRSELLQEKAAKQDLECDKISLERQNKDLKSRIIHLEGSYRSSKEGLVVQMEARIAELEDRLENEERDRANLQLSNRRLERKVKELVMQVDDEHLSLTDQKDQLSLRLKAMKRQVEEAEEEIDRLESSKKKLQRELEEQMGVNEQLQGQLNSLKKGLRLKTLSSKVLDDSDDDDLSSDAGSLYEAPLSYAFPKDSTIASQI
Put plainly: co-IP; total lysates of mCCD cells immunoprecipitated with anti-CGNL1 antibodies (anti-HA as negative control); immunoblot for CGNL1, CAMSAP3 and PLEKHA7.

In test [2] the target is T1, Paracingulin (CGNL1), endogenous in mCCD cells (mouse (endogenous in mCCD)). Put plainly: proximity ligation; PLA for CGNL1 and CAMSAP3 in mCCD cells (WT, PLEKHA7-KO, CGN-KO; CGNL1-KO as negative control), ZO-1 as junctional marker.
Test [3] has as its target T2, GST-CGNL1 fragment D (Rod-1 region, residues 591-882) (human) (UniProt Q0VF96).
T2 sequence: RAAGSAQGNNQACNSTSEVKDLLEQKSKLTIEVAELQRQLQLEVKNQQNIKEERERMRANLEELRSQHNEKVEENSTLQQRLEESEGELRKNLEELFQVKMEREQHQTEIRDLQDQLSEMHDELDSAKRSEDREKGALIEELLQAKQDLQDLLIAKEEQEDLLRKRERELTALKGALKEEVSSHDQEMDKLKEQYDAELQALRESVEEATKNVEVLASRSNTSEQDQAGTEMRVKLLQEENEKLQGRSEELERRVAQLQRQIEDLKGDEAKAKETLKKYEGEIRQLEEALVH
Put plainly: pull-down; GST fusion proteins as baits; GFP-tagged preys expressed in HEK293T cells, in lysates; immunoblot with anti-GFP antibodies; only the target purified. On the technique in general: Immunoblotting shows a protein as a band on a membrane.

B1: PLEKHA7, endogenous in mCCD cells (protein, UniProt Q3UIL6 1-1118)
chain: MAAAVGRDTLPEHWSYGVCRDGRVFFINDQLRCTTWLHPRTGEPVNSGHMIRSDLPRGWEEGFTEEGASFFIDHNQQTTTFRHPVTGQFSSENSEYVLREEPHPHMSKPERNQRPSSMVSETSTAGTTSTLEAKPGPKIVKSSSKVHSFGKRDQAIRRNLNVPVVVRGWLHKQDSSGMRLWKRRWFVLADYCLFYYKDSREEAVLGSIPLPSYVISPVAPEDRISRKYSFKAVHTGMRALIYSTTTAGSQMEHSGMRTYYFSADTLEDMNAWVRAMNQAAQVLSRSSLRRDVDKVERQAMPQANHTDACQECGHVGPGHSRDCPRRGYEDSYGFNRREQEEERFRAQRDPLEGRRDRSKARSPYLPAEEDALFVDLPGGPRGQQAQPQRAEKNGVPPYGLGEQNGTNGYQRTAPPRANPEKHSQRKTGLAQAEHWTKAQKGDGRSLPLDQTLPRQGPSQPLSFPENYQSLPKSTRHLSGSSSPPPRNLPSDYKYAQDRASHLKMSSEERRAHRDGTVWQLYEWQQRQQFRHGSPTAPIGAGSPEFTEQGRSRSLLEVPRSISVPPSPSDIPPPGPPRPFPPRRPHTPAERVTVKPPEQRRSVDISLGGSPRKARGHAAKNSSHVDRRSMPSMGYMTHTVSAPSLHGKSADDTYLQLKKDLEYLDLKMTGRDLLKDRSLKPMKIAESDIDVKLSIFCEQDRILQDLEDKIRALKENKDQLESVLEVLHRQTEQYRDQPQHLEKITCQQRLLQEDLVHIRAELCRESTEMENAWNEYLKLEKDVEQLKQTLQEQHRRAFFFQEKSQIQKDLWRIEDVMAGLSANKENYRVLVGSVKNPERKTVPLFPHPSVPSLSPTESKPALQPSPPTSPVRTPLEVRLFPQLQTYVPYRPHPPQLRKVMSPLQSPTKAKPQAEDEAPPRPPLPELYSPEDQPPAVPPLPREATIIRHTSVRGLKRQSDERKRDREQGQCVNGDLKVELRSYVSEPELASLSGDVPQPSLSLVGSESRYQTLPGRGLSGSTSRLQQSSTIAPYVTLRRGLNAENSSATFSRPKSALERLYSGDHQRGKMSAEEQLERMKRHQKALVRERKRTLSQGEKTGLLSARYLSQPLPGDLGSVC
Regarding B1, in test [1], the binding entry was “binds”.

B2: CAMSAP3, endogenous in mCCD cells (protein, UniProt Q80VC9-1 1-1252)
chain: MVEAAPAGSGPLRRTFLVPEIKSLDQYDFSRAKAAASLAWVLRAAFGGAEHVPPELWEPFYTDQYAQEHVKPPVTRLLLSAELYCRAWRQALPQLEPSPSPSALLALLARRGTVPSLPEHPVREADLKHQPILMGAHLAVIDALMVAFSFEWTKTLPGPLALSSLEHKLLFWVDTTVRRLQEKTEQEAAQRASPAAPLDGASPAQPSIRYRKDRAIARRAPCFPNVTTLQDLASGAALAATIHCYCPQLLRLEEVCLKDPMSVADSLYNLQLVQDFCASHLPRGCPLSLEDLLYVPPPLKVNLVVLLAEMYMCFEVLKPDFVQAKDLPDGHAVSPRNTETVPSQNNSGSSSPVFNFRHPLLSPGGPQSPLRGSTGSLKSSPSMSHMEALGKAWNRQLSRPLSQAVSFSTPFGLDSDVDVVMGDPVLLRSVSSDSLGPPRPVSTSSRNSAQPAPESGDLPTIEEALQIIHSAEPRLLPDGAADGSFYLHSPEGLSKPPLSPYPPEGASKPLSDRLNKAPIYISHPENPSKSSPCSTGEILKPPPPSEGSPKAVASSPAANNSEVKMTSFAERKKQLVKAEAESGLGSPTSTPVAPEALSSEMSELGARLEEKRRAIEAQKRRIEAIFAKHRQRLGKSAFLQVQPREAAGEAEEEAELGSVPGGERPAGEGQGEPSLRHKSVTFSPDLGPVPPEGLGDYNRAVSKLSAALSSLQRDMQRLTDQQQRLLAPPEAPGPAPPPAAWVIPGPATGPKAASPSPARRAPAARRSPGPGPSPTPRSPKHARPAELKLAPLTRVLTPPHDVDSLPHLRKFSPSQVPVQTRSSILLSEGTPPEEPTTKPALIEIPLASLGEPAADEEGDGSPPGAEDSLEEEASSEGEPRSGLGFFYKDEDKPEDEMAQKRASLLERQQRRVEEARRRKQWQEAEKEQKREEAARLAQEAPGLAFTTPVVASAAPVATLAPTTRAMAPAEEEVGPRRGDFTRLEYERRAQLKLMDDLDKVLRPRASGTGGPGRGGRRATRPRSGCCDDSALARSPARGLLGSRLSKVYSQSTLSLSTVANEAPNNLGVKRPTSRAPSPSGLMSPSRLPGSRERDWENGSNASSPASVPEYTGPRLYKEPSAKSNKFIIHNALSHCCLAGKVNEPQKNRILEEIEKSKANHFLILFRDSSCQFRALYTLSGETEELSRLAGYGPRTVTPAMVEGIYKYNSDRKRFTQIPAKTMSMSVDAFTIQGHLWQSKKPTTPKKGGGTPK
In the case of B2, the binding entry in test [1] and in test [2] was “binds” each time.

B3: GFP-tagged full-length mouse CAMSAP3 (protein, UniProt Q80VC9-1 1-1252)
chain: MVEAAPAGSGPLRRTFLVPEIKSLDQYDFSRAKAAASLAWVLRAAFGGAEHVPPELWEPFYTDQYAQEHVKPPVTRLLLSAELYCRAWRQALPQLEPSPSPSALLALLARRGTVPSLPEHPVREADLKHQPILMGAHLAVIDALMVAFSFEWTKTLPGPLALSSLEHKLLFWVDTTVRRLQEKTEQEAAQRASPAAPLDGASPAQPSIRYRKDRAIARRAPCFPNVTTLQDLASGAALAATIHCYCPQLLRLEEVCLKDPMSVADSLYNLQLVQDFCASHLPRGCPLSLEDLLYVPPPLKVNLVVLLAEMYMCFEVLKPDFVQAKDLPDGHAVSPRNTETVPSQNNSGSSSPVFNFRHPLLSPGGPQSPLRGSTGSLKSSPSMSHMEALGKAWNRQLSRPLSQAVSFSTPFGLDSDVDVVMGDPVLLRSVSSDSLGPPRPVSTSSRNSAQPAPESGDLPTIEEALQIIHSAEPRLLPDGAADGSFYLHSPEGLSKPPLSPYPPEGASKPLSDRLNKAPIYISHPENPSKSSPCSTGEILKPPPPSEGSPKAVASSPAANNSEVKMTSFAERKKQLVKAEAESGLGSPTSTPVAPEALSSEMSELGARLEEKRRAIEAQKRRIEAIFAKHRQRLGKSAFLQVQPREAAGEAEEEAELGSVPGGERPAGEGQGEPSLRHKSVTFSPDLGPVPPEGLGDYNRAVSKLSAALSSLQRDMQRLTDQQQRLLAPPEAPGPAPPPAAWVIPGPATGPKAASPSPARRAPAARRSPGPGPSPTPRSPKHARPAELKLAPLTRVLTPPHDVDSLPHLRKFSPSQVPVQTRSSILLSEGTPPEEPTTKPALIEIPLASLGEPAADEEGDGSPPGAEDSLEEEASSEGEPRSGLGFFYKDEDKPEDEMAQKRASLLERQQRRVEEARRRKQWQEAEKEQKREEAARLAQEAPGLAFTTPVVASAAPVATLAPTTRAMAPAEEEVGPRRGDFTRLEYERRAQLKLMDDLDKVLRPRASGTGGPGRGGRRATRPRSGCCDDSALARSPARGLLGSRLSKVYSQSTLSLSTVANEAPNNLGVKRPTSRAPSPSGLMSPSRLPGSRERDWENGSNASSPASVPEYTGPRLYKEPSAKSNKFIIHNALSHCCLAGKVNEPQKNRILEEIEKSKANHFLILFRDSSCQFRALYTLSGETEELSRLAGYGPRTVTPAMVEGIYKYNSDRKRFTQIPAKTMSMSVDAFTIQGHLWQSKKPTTPKKGGGTPK
In the case of B3, the binding entry in test [3] is recorded as “binds”.

B4: GFP-tagged mouse CAMSAP3 coiled-coil region (CCs: 594-947) (domain or fragment, UniProt Q80VC9-1 594-947)
chain: PEALSSEMSELGARLEEKRRAIEAQKRRIEAIFAKHRQRLGKSAFLQVQPREAAGEAEEEAELGSVPGGERPAGEGQGEPSLRHKSVTFSPDLGPVPPEGLGDYNRAVSKLSAALSSLQRDMQRLTDQQQRLLAPPEAPGPAPPPAAWVIPGPATGPKAASPSPARRAPAARRSPGPGPSPTPRSPKHARPAELKLAPLTRVLTPPHDVDSLPHLRKFSPSQVPVQTRSSILLSEGTPPEEPTTKPALIEIPLASLGEPAADEEGDGSPPGAEDSLEEEASSEGEPRSGLGFFYKDEDKPEDEMAQKRASLLERQQRRVEEARRRKQWQEAEKEQKREEAARLAQEAPGLAFTT
In the case of B4, in test [3], the binding result is given as “binds”.
